No constants are given. Whether binding was seen depends on the method and setting. Binding seen in cells or lysates may run through a third protein. Here binding means that the protein was enriched with, or labelled near, the bait; the list need not be complete. For some assays here: No binding means not detected with the bait.

Chains of the proteins cited; added tags and fusions are not shown. Lines headed by an entry give the natural chain unless they say otherwise; changes in a name come on top.
UniProt Q583J0: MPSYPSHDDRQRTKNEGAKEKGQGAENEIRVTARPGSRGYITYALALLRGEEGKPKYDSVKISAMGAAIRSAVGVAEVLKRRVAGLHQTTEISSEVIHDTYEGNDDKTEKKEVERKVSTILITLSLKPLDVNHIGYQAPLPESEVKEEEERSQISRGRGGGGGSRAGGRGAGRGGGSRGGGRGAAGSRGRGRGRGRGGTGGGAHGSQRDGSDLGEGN
UniProt Q583I9: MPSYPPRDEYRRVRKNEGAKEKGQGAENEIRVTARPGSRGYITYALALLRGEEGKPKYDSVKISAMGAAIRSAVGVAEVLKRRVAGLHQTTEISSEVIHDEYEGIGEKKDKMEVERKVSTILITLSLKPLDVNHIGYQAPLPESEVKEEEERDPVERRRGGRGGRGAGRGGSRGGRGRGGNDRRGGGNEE
UniProt Q585M4: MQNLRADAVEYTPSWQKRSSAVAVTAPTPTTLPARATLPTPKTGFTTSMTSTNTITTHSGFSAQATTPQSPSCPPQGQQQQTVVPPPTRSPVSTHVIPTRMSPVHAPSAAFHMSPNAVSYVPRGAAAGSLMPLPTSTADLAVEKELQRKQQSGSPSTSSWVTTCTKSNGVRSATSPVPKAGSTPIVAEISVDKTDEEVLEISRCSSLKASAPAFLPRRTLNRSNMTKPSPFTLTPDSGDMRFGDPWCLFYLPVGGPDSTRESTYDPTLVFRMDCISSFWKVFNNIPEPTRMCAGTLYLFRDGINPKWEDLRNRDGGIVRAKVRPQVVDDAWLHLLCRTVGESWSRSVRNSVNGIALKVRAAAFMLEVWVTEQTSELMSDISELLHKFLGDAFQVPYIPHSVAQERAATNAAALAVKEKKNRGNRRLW
UniProt Q38E63: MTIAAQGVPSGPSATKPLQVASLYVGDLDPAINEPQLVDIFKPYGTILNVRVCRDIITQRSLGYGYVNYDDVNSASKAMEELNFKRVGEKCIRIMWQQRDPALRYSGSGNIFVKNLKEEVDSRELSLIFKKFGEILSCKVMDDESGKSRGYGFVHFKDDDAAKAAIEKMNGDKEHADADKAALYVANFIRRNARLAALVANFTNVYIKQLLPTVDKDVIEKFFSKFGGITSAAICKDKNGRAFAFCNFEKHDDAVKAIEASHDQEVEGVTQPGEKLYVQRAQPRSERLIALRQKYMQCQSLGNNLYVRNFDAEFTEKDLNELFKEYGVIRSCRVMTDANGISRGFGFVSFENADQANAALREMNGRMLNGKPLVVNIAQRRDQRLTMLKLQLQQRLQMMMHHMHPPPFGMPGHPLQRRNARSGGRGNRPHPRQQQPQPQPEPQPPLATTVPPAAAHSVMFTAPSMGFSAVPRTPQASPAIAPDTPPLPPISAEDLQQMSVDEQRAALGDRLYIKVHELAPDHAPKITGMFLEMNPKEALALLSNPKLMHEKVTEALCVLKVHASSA
UniProt Q38DU2: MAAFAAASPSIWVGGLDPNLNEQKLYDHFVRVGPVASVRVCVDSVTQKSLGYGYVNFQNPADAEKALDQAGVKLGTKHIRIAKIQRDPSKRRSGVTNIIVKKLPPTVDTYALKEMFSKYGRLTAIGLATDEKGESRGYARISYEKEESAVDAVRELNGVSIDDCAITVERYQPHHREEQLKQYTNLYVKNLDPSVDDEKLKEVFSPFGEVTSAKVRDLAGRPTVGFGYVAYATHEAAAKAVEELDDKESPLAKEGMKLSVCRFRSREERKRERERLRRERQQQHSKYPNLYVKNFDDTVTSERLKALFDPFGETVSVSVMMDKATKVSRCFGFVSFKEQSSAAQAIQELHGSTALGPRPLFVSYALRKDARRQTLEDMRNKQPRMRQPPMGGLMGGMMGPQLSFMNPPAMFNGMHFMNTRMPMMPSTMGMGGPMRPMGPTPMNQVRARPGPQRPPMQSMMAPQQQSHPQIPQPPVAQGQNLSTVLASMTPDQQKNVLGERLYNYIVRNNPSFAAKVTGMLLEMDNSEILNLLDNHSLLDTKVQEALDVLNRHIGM

The text below walks through data of publication PMC3141063.

Common to all, as to test: affinity purification with mass spectrometry; tandem affinity purification of N-terminally PTP-tagged Alba proteins (in situ tagged) from procyclic T. brucei extract under native conditions; TEV and EGTA eluates on SDS-PAGE, bands digested with trypsin, LC-MS/MS
The target in assay [1] is T1, PTP-Alba2 (Trypanosoma brucei) (UniProt Q385X2).
T1 sequence: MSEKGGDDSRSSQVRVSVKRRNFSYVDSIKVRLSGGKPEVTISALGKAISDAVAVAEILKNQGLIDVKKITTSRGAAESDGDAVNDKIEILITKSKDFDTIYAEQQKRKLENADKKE

In assay [2] the target is T2, PTP-Alba1 (Trypanosoma brucei) (UniProt Q385X1).
T2 sequence: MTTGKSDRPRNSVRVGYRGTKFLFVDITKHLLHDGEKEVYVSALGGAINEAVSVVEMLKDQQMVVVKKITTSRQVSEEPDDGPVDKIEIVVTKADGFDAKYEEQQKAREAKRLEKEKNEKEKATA

For assay [3], the target named is PTP-Alba4 (Trypanosoma brucei) (UniProt Q583J0).
For assay [4], the target named is PTP-Alba3 (Trypanosoma brucei) (UniProt Q583I9).

For Alba3 (from UniProt Q583I9), the binding result in assay [1] and in assay [2] was “binds” throughout.

Alba4 (from UniProt Q583J0): the binding entry in assay [1] and in assay [2] was “binds” each time.

As to DHH1, the binding entry in assay [1] and in assay [2] was “no binding” in each case.

“Eukaryotic translation initiation factor 4E4 (from UniProt Q585M4)”: the binding result in assay [1] is “binds”.

Take Scd6: the binding entry in assay [1] and in assay [2] was “no binding” throughout.

As to “poly(A)-binding protein PABP1 (from UniProt Q38E63)”, the binding entry in assay [1], in assay [3], in assay [2] and in assay [4] was “binds” each time.

As for “poly(A)-binding protein PABP2 (from UniProt Q38DU2)”, the binding entry in assay [1], in assay [3], in assay [2] and in assay [4] was “binds” throughout.
